Here are results for 20 sequences from patent US6331394.

Chains of the proteins cited; added tags and fusions are not shown. A line that says so, or that is headed by a name, gives the form on record, which may keep a tag or linker.
integrin alphaVbeta3 (Homo sapiens), one chain, as listed by the source, chain 2 of 2: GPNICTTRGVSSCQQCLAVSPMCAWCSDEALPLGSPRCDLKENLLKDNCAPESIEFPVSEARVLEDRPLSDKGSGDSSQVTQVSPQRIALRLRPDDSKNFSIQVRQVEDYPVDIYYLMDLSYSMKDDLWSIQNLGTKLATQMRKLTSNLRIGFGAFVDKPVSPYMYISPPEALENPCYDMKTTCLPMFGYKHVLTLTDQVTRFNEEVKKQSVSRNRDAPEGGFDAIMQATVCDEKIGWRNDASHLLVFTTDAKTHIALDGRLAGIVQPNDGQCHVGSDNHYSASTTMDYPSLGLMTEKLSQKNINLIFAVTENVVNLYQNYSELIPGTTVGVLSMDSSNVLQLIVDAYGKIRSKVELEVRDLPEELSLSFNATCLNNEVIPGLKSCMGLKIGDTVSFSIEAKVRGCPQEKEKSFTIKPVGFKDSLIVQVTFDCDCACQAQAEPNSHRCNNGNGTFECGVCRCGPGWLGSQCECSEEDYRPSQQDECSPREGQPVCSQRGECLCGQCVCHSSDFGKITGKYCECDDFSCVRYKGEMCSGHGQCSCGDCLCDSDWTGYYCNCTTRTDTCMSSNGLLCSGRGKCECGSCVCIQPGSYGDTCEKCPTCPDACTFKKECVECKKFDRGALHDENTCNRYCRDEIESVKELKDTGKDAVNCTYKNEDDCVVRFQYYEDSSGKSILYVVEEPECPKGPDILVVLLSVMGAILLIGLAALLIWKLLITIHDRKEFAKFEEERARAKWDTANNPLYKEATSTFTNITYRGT
integrin alphaVbeta3 (Homo sapiens), one chain, as listed by the source, chain 1 of 2: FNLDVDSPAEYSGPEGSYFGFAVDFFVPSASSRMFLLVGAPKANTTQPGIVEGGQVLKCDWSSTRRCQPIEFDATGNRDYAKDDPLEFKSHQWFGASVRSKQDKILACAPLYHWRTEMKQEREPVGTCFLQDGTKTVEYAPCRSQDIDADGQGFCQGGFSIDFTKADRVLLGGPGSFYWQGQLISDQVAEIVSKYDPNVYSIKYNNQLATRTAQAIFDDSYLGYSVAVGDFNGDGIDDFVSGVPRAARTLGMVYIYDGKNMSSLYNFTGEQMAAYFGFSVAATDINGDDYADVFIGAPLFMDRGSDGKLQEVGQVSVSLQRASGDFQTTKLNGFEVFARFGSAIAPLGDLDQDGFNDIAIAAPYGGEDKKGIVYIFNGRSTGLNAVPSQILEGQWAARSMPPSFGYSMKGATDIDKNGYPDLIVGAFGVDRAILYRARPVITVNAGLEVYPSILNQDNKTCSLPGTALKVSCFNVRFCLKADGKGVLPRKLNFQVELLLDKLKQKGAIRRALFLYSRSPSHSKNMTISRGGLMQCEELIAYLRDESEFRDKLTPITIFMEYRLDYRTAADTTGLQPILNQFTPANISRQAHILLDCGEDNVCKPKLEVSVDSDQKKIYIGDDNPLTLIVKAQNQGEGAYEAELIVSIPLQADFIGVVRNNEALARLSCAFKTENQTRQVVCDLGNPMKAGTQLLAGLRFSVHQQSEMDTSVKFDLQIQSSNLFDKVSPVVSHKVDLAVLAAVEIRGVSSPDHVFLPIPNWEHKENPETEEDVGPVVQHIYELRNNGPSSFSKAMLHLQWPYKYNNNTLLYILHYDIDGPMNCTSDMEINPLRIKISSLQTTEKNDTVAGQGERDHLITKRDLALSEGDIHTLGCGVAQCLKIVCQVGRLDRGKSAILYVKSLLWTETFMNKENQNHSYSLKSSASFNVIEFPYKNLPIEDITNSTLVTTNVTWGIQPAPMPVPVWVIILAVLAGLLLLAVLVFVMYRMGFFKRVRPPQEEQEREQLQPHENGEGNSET

pKd: −log10 of the molar value. Construct, isoform or probe ends are uncertain for at least one entry.

The test system of this data set is integrin alphaVbeta3 (Homo sapiens). The data set can be described thus: ELONA. As to conditions: immobilized integrin, label: 5'-biotin, letters built from the parent sequence and the stated change.
[1] abbreviates: 2'-F on all C and U [2'-F on all C and U: 1,2,3,6,8,9,11,12,13,19,20,21,23,25,29,33,34,36,37,38], Mg/Ca/Mn buffer, 37 C, purified native protein.
[2] abbreviates: 2'-F on all C and U [2'-F on all C and U], Mg/Ca/Mn buffer, 37 C, purified native protein.
Setting [3] is: 2'-F on all C and U [2'-F on all C and U: 1,2,3,6,8,9,11,12,19,20,21,23,25,29,33,34,36,37,38], Mg/Ca/Mn buffer, 37 C, purified native protein.
Where [4] appears, read: 2'-F on all C and U [2'-F on all C and U: 1,2,3,4,6,8,9,11,18,19,20,22,24,28,32,33,35,36,37], Mg/Ca/Mn buffer, 37 C, purified native protein.

For the sequence “CGCCGUUAUCACGACGUGCGUUCUGGGCGGUACUCGCGCA [15.43]”, the pKd (2'-F on all C and U [2'-F at all C and U: 1,3,4,6,7,9,10,12,15,17,19,21,22,23,24,28,31,33,34,35,37,39], Mg/Ca/Mn buffer, 37 C, purified native protein) was 7.35.
With “UUCAACAUUGUCCAAGGGCUUAUAUGAGCGGAUUACCC [15.14]”, the negative logarithm of the Kd (pKd) under setting [1] was 8.22.
With “UUCAACGAUGUUGAGGGGCUUAUAUGAGCGCAUUAUACCC [7.77]”, the pKd under setting [2] was 6.11.
In the case of “UUCAACGCUGUCAAAGGGCUUAUAUAAGCGGAUUACCC [17.1]”, under setting [3], the pKd is 6.42.
Consider “UUCAACGCUGUCCAAGGGCUUAUAUGAGCGCAUUAUACCC [15.20]”, for which the negative logarithm of the Kd (pKd) (2'-F on all C and U [2'-F on all C and U: 1,2,3,6,8,9,11,12,13,19,20,21,23,25,29,31,33,34,36,38,39,40], Mg/Ca/Mn buffer, 37 C, purified native protein) is 7.70.
As for “UUCAACGCUGUCCAAGGGCUUAUAUGAGCGCGUUAUACCC [7.38]”, the negative logarithm of the Kd (pKd) under setting [2] is 7.31.
As to “UUCAACGCUGUCCUAGGGCUUAUAUGAGCGCAGGAUACCC [15.53]”, the negative logarithm of the Kd (pKd) (2'-F on all C and U [2'-F on all C and U: 1,2,3,6,8,9,11,12,13,14,19,20,21,23,25,29,31,36,38,39,40], Mg/Ca/Mn buffer, 37 C, purified native protein) is 7.15.
On to “UUCAACGCUGUGAAGGGCUUAUAUGAGCGGAUUACCC [15.18]”, for which the negative-log Kd (pKd) (2'-F on all C and U [2'-F on all C and U: 1,2,3,6,8,9,11,18,19,20,22,24,28,32,33,35,36,37], Mg/Ca/Mn buffer, pH 7.5, 37 C, purified native protein) is 8.70.
For the sequence “UUCAACGCUGUUCAAGGGCUUAUAUGAGCGGAUUACCC [15.10]”, the pKd under setting [1] was 7.70.
Regarding “UUCAACGUUGUCAAAGGGCUUAUACGGGCGGAUUACCC [15.17]”, the pKd under setting [3] is 8.40.
Regarding “UUCAACGUUGUCAAAGGGCUUAUAUGAGCGGAUUACCC [15.2]”, the negative-log Kd (pKd) under setting [2] is 8.22.
On to “UUCAACGUUGUCUAAGGGCUUAUAUGAGCGGAUUACCC [17.8]”, for which the pKd under setting [1] is 7.74.
For the sequence “UUCGACGCUGUGAAGGGCUUAUAUGAGCGGAUACACCC [17.5]”, the pKd (2'-F on all C and U [2'-F on all C and U: 1,2,3,6,8,9,11,18,19,20,22,24,28,32,34,36,37,38], Mg/Ca/Mn buffer, 37 C, purified native …) was 8.30.
As to “UUCGACGCUGUUCAAGGGCUUAUAUGAGCGCGUUAUACCC [7.54]”, the pKd under setting [2] was 6.64.
For “UUCGACGCUGUUGAAGGGCUUAUACGAGCGGAUUACCC [15.8]”, the pKd under setting [2] was 8.30.
Take “UUCUACGAUGUCAAAGGGCUUAUAUGAGCGGAUUACCC [15.7]”: under setting [2], the negative logarithm of the Kd (pKd) is 8.30.
Regarding “UUCUACGCUGUGAAGGGCUUAUACGAGCGGAUUACCC [17.7]”, under setting [4], the pKd is 8.22.
Still for that read-out and setting: to “UUCUACGCUGUGAAGGGCUUAUAUGAGCGAAUUACCC [17.11]” belongs 8.40.
Still for that read-out and setting: to “UUCUACGCUGUGAAGGGCUUAUAUGAGCGGAUUACCC [17.2]” belongs 8.70.
For “UUCUACGUUGUUUAAGGGCUUAUAUGAGCGCAUUAUACCC [7.3]”, the pKd (2'-F on all C and U [2'-F on all C and U], 37 C, listing 3' fixed region lacks 2 nt relative to Table 1, purified native protein) was 7.66.
